Results: patent US11725037B2, “Peptide dual agonists of GIPR and GLP2R” (University of Copenhagen, priority 2017, dated 2023)
At least one peptide structure holds a part that was inferred or is arguable (an end, a ring closure or a residue). Peptide text beside a SMILES is read from it. * marks the point of attachment. Palmitoyl = CCCCCCCCCCCCCCCC(=O)*

Key:
human GIP receptor = molecular target: T1, human GIP receptor (Homo sapiens, UniProt P48546); assay: cAMP accumulation assay (HitHunter cAMP XS) in transiently transfected COS-7 cells expressing the human GIP receptor; assay type: cell-based; conditions: Table 2; EC50 relative to native GIP
T1 construct: host or cells: COS-7 (transient, calcium phosphate; pCMV-Script vector)
T1 sequence (P48546 22-466): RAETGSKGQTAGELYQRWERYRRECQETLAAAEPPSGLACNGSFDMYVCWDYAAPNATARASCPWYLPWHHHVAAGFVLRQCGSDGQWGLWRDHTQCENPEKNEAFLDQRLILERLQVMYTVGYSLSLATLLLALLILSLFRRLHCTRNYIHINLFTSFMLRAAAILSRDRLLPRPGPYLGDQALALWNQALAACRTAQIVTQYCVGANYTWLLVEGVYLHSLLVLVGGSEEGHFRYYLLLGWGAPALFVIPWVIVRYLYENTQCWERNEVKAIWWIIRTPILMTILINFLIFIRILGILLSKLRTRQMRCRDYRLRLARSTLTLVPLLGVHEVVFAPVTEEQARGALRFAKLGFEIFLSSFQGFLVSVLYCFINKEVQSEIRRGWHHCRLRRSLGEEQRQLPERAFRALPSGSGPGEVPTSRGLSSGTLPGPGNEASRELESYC
Protocol: (§1) The day after, the cells were washed twice with Hepes buffered saline (HBS) buffer and incubated with HBS and 1 mM 3-isobutyl-1-methylxanthine (IBMX) for 30 min at 37° C. Ligands were added and incubated for 30 min at 37° C. The HitHunter™ cAMP XS assay (DiscoveRx) was carried out according to the manufacturer's instructions.

human GLP-2 receptor = molecular target: T2, human GLP-2 receptor (Homo sapiens, UniProt O95838); assay: cAMP accumulation assay (HitHunter cAMP XS) in transiently transfected COS-7 cells expressing the human GLP-2 receptor; assay type: cell-based; conditions: Table 2; EC50 relative to native GLP-2
T2 construct: host or cells: COS-7 (transient, calcium phosphate; pCMV-Script vector)
T2 sequence (O95838 1-553): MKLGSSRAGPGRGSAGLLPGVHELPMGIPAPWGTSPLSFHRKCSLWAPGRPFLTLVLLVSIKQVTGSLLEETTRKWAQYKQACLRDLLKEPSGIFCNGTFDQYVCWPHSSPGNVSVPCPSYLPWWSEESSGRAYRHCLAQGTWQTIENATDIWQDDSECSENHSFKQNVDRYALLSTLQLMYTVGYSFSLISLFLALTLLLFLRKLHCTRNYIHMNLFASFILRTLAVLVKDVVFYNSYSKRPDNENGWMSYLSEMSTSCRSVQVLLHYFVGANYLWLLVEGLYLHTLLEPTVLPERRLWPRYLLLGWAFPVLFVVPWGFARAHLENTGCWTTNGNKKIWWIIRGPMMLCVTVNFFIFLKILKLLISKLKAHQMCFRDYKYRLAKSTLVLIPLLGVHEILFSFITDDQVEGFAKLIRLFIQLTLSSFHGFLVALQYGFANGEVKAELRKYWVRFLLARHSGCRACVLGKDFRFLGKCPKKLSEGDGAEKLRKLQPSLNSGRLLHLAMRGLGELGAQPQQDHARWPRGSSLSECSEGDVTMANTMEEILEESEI
Protocol: as §1

| Compound | fold (fold change of native GIP), GIP receptor (human GIP receptor) [fold] | fold (fold change of native GLP-2), GLP-2 receptor (human GLP-2 receptor) [fold] |
| --- | --- | --- |
| CCCCCCCCCCCCCCCC(=O)N[C@@H](Cc1c[nH]cn1)C(=O)N[C@@H](C)C(=O)N[C@@H](CC(=O)O)C(=O)NCC(=O)N[C@H](C(=O)N[C@@H](Cc1ccccc1)C(=O)N[C@@H](CO)C(=O)N[C@@H](CO)C(=O)N[C@@H](CC(=O)O)C(=O)N[C@@H](Cc1ccc(O)cc1)C(=O)N[C@@H](CO)C(=O)N[C@H](C(=O)N[C@H](C(=O)N[C@@H](CC(C)C)C(=O)N[C@@H](CC(=O)O)C(=O)N[C@@H](CC(N)=O)C(=O)N[C@@H](CC(C)C)C(=O)N[C@@H](C)C(=O)N[C@@H](C)C(=O)N[C@@H](CCCNC(=N)N)C(=O)N[C@@H](CC(=O)O)C(=O)N[C@@H](Cc1ccccc1)C(=O)N[C@H](C(=O)N[C@@H](CC(N)=O)C(=O)N[C@@H](Cc1c[nH]c2ccccc12)C(=O)N[C@@H](CC(C)C)C(=O)N[C@H](C(=O)N[C@@H](CCC(N)=O)C(=O)N[C@H](C(=O)N[C@@H](CCCCN)C(=O)N[C@H](C(=O)N[C@H](C(=O)N[C@@H](CC(=O)O)C(=O)O)[C@@H](C)O)[C@@H](C)CC)[C@@H](C)O)[C@@H](C)CC)[C@@H](C)CC)[C@@H](C)CC)[C@@H](C)O)[C@@H](C)O [Co-agonist 22] (Palmitoyl-HADGTFSSDYSTILDNLAARDFINWLIQTKITD-OH) | 4.6 | 1.1 |
| CCCCCCCCCCCCCCCC(=O)N[C@@H](Cc1c[nH]cn1)C(=O)N[C@@H](C)C(=O)N[C@@H](CC(=O)O)C(=O)NCC(=O)N[C@H](C(=O)N[C@@H](Cc1ccccc1)C(=O)N[C@H](C(=O)N[C@@H](CO)C(=O)N[C@@H](CC(=O)O)C(=O)N[C@@H](Cc1ccc(O)cc1)C(=O)N[C@@H](CO)C(=O)N[C@H](C(=O)N[C@H](C(=O)N[C@@H](CC(C)C)C(=O)N[C@@H](CC(=O)O)C(=O)N[C@@H](CC(N)=O)C(=O)N[C@@H](CC(C)C)C(=O)N[C@@H](C)C(=O)N[C@@H](C)C(=O)N[C@@H](CCCNC(=N)N)C(=O)N[C@@H](CC(=O)O)C(=O)N[C@@H](Cc1ccccc1)C(=O)N[C@H](C(=O)N[C@@H](CC(N)=O)C(=O)N[C@@H](Cc1c[nH]c2ccccc12)C(=O)N[C@@H](CC(C)C)C(=O)N[C@H](C(=O)N[C@@H](CCC(N)=O)C(=O)N[C@H](C(=O)N[C@@H](CCCCN)C(=O)N[C@H](C(=O)N[C@H](C(=O)N[C@@H](CCCCN)C(=O)O)[C@@H](C)O)[C@@H](C)CC)[C@@H](C)O)[C@@H](C)CC)[C@@H](C)CC)[C@@H](C)CC)[C@@H](C)O)[C@@H](C)CC)[C@@H](C)O [Co-agonist 29] | 20 | 14 |
